# Measurements reported in PubChem BioAssay AID686938 (Drosophila RNAi Screening Center, 2013).
# Assay: 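Fly genes required for calcium entry once internal stores are emptied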 (primary screen)
# Cells: Drosophila S2R+ cells
# Reagent: long dsRNA against Drosophila genes, about 0.25 µg dsRNA per well, roughly 10,000 cells
# Duration: 5 days of knock-down before the calcium assay
# Conditions: thapsigargin (SERCA pump blocker) to empty calcium stores; entry signal taken 4 min after adding it
# Measured: 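Duplicate raw fluo-4 intensities per well from a plate reader, at rest and four minutes after thapsigargin emptied calcium stores; entry-to-rest ratio filled for only some wells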
# Direction: calcium entry signal: higher = stronger calcium signal after store depletion; entry to resting ratio: higher = more calcium entry relative to resting level; resting calcium signal: higher = higher resting calcium signal
# Rule for the call: 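Hit if the duplicate-averaged plate z-score for entry over resting signal is under −3; wells with weak total dye signal (Fmax z < −2) or more than 5 off-targets removed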
# Meaning of the calls: active = strongly reduced calcium entry; inactive = no strong reduction
# The screen tested about 23,000 reagents; shown is an unselected part of those with a known target gene and a result. Over the whole deposit, 75 (0.33%) were called active. 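Raw plate signals without normalisation; calls rest on plate z-scores that were not deposited; ratio present for only 364 wells.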 Entries without a mark were called inactive. Reagent sequences are not shown. Not given: the dose of the treatment.
target,dsRNA,"calcium entry signal, replicate 1 (fluorescence units)","calcium entry signal, replicate 2 (fluorescence units)",entry to resting ratio,"resting calcium signal, replicate 1 (fluorescence units)","resting calcium signal, replicate 2 (fluorescence units)"
CG18622,DRSC15360,2.93e7,4.58e7,,1.57e7,7.02e7
CG3106,DRSC18279,3.24e7,4.41e7,,1.44e7,1.83e7
CG1688,DRSC05934,3.25e7,3.32e7,,1.52e7,1.60e7
CG1688,DRSC23207,4.98e7,3.21e7,,2.49e7,1.45e7
bowl,DRSC00805,4.91e7,,,2.87e7,
Ir67c,DRSC22097,4.04e7,3.65e7,,2.40e7,1.73e7
ND-51,DRSC03145,5.56e7,,,2.93e7,
Sap130,DRSC09680,1.76e7,2.04e7,,9.81e6,1.03e7
Josd,DRSC18323,3.36e7,3.23e7,,1.63e7,1.59e7
CG13239,DRSC11694,2.45e7,3.25e7,,1.19e7,1.45e7
Reps,DRSC02940,3.47e7,5.03e7,,1.87e7,2.03e7
CG15650,DRSC04241,4.22e7,5.40e7,,2.12e7,2.40e7
CG15533,DRSC15069,3.05e7,4.66e7,,1.65e7,1.96e7
kmr,DRSC12986,3.26e7,3.55e7,,1.80e7,1.74e7
kmr,DRSC14827,3.43e7,6.03e7,,1.86e7,7.45e7
kmr,DRSC14828,4.77e7,6.25e7,,2.20e7,6.58e7
kmr,DRSC16472,2.09e7,2.39e7,,1.02e7,1.24e7
CG4661,DRSC19910,3.60e7,5.79e7,,1.78e7,2.66e7
Tim9a,DRSC19753,3.78e7,4.92e7,,1.81e7,2.24e7
ZIPIC,DRSC16349,3.53e7,5.02e7,,1.86e7,2.41e7
l(2)k01209,DRSC06889,4.50e7,4.42e7,,1.84e7,2.01e7
CG13376,DRSC17901,3.95e7,5.80e7,2.1,1.89e7,2.44e7
asrij,DRSC04175,4.19e7,4.11e7,,2.12e7,1.84e7
alpha-Man-IIa,DRSC15393,2.71e7,2.25e7,,1.47e7,1.25e7
dpr5,DRSC15766,3.24e7,3.50e7,,1.57e7,1.82e7
Arf6,DRSC05921,4.59e7,5.97e7,,2.84e7,3.36e7
nuf,DRSC11379,3.24e7,4.89e7,,1.55e7,2.15e7
nuf,DRSC22524,2.63e7,2.85e7,,1.59e7,1.45e7
nuf,DRSC23276,4.41e7,4.45e7,,1.80e7,1.76e7
LUBEL,DRSC02141,3.35e7,3.32e7,,1.58e7,1.65e7
CG12194,DRSC00345,2.64e7,2.91e7,,1.40e7,1.28e7
Ripalpha,DRSC02657,2.36e7,3.83e7,,1.18e7,1.63e7
CG8891,DRSC03120,3.53e7,2.97e7,,1.70e7,1.57e7
IntS4,DRSC17810,2.11e7,3.01e7,,1.21e7,1.45e7
B52,DRSC14121,2.44e7,3.02e7,,1.06e7,1.49e7
CAH15,DRSC04534,4.72e7,4.40e7,,2.00e7,1.79e7
Flo2,DRSC19062,3.46e7,3.88e7,,1.65e7,1.67e7
Flo2,DRSC20244,4.59e7,2.99e7,,2.10e7,1.37e7
CG33189,DRSC21427,4.84e7,3.70e7,,2.78e7,1.69e7
Sbp2,DRSC10766,3.50e7,2.51e7,,2.37e7,1.14e7
Cnep1r2,DRSC10950,3.37e7,2.56e7,,2.43e7,1.06e7
Mkp3,DRSC10084,4.27e7,5.67e7,,2.08e7,3.75e7
Mkp3,DRSC10085,1.80e7,3.80e7,,1.05e7,1.46e7
Gfat2,DRSC14598,3.53e7,4.64e7,,1.53e7,1.95e7
CG42241 (retired record),DRSC04007,2.04e7,3.51e7,,1.10e7,1.51e7
CG15745 (retired record),DRSC19711,4.31e7,6.38e7,,2.07e7,2.83e7
CG14562,DRSC11723,3.37e7,5.61e7,,1.52e7,2.48e7
Reg-5,DRSC04647,4.50e7,,,2.15e7,
NetB,DRSC20262,3.02e7,2.99e7,,1.41e7,1.37e7
CG12054,DRSC14467,2.67e7,2.28e7,,1.60e7,1.24e7
CG12054,DRSC23137,4.48e7,3.04e7,,2.25e7,1.37e7
CG32445,DRSC11678,3.13e7,5.06e7,,1.53e7,2.32e7
Cib2,DRSC04535,4.29e7,4.29e7,,2.12e7,1.89e7
srl,DRSC12340,3.41e7,5.32e7,,1.66e7,2.48e7
CG14302,DRSC14781,3.45e7,4.39e7,,5.47e7,1.90e7
coil,DRSC07242,4.07e7,3.41e7,,1.87e7,1.64e7
p38c,DRSC22939,5.42e7,3.57e7,,2.75e7,1.64e7
CG13653,DRSC14653,4.41e7,7.47e7,,2.28e7,3.03e7
